From PubChem BioAssay AID493014 (National Center for Advancing Translational Sciences (NCATS), 2011)
Values joined by “and” are separate entries in the source; they are usually repeats but may differ in a detail not shown here. Equal entries are not always repeated. Some of the results follow. The main result of the screen is listed elsewhere. These columns were measured beside it and carry no call. Most of these compounds were active or inconclusive in the main read-out, so they are no random draw. Words in brackets tell the shape of the fitted curve; partial curves, single points and poor fits give uncertain potencies.

Assay: qHTS Assay to Find Inhibitors of Chronic Active B-Cell Receptor Signaling
Conditions: ABC-DLBCL IkBa-CBG/CBR reporter, luminescence ratio (green luciferase fused to IkBa over red control in TMD8 lymphoma cells), 4 h
How it was run: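 Compounds up to 46 uM were incubated four hours with TMD8 cells whose green CBG68 luciferase is fused to IkappaBalpha; red CBR luminescence normalised the signal, and concentration-effect curves were fitted to fusion, red and ratio data.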

[1] = measured here: CBR red luminescence, cell number
[2] = measured here: IkBa-CBG green luminescence

| Structure (SMILES) | AC50 [1] | AC50 [2] |
| --- | --- | --- |
| O=C(Nc1nnc(-c2ccc(Br)cc2)o1)c1ccco1 | 20.6 µM [falling, partial curve] |  |
| O=C(CSc1nc2[nH]ncc2c(=O)[nH]1)Nc1ccccc1 | 7.08 µM [falling, partial curve] |  |
| Cc1ccc(C2(COC(=O)C(C)C)CO2)c(OC(=O)C(C)C)c1 (configuration not stated) |  | 28.2 µM [falling, partial curve, poor fit] |
| CCN(CC)CCN(C(=O)c1ccc(C(C)=O)cc1)c1nc2ccc(Cl)cc2s1 | 35.5 µM [falling, single point] |  |
| COC(=O)Nc1ccc2c(c1)N(C(=O)CCN1CCN3CCCC3C1)c1ccccc1CC2 (configuration not stated) | 17.8 µM [falling, single point] |  |
| COc1ccc(Nc2ccc([N+](=O)[O-])cn2)cc1 | 2.51 µM [rising, full curve, poor fit] |  |
| O=C(Nc1cccnc1)c1ccc(NC(=O)c2ccco2)cc1 | 25.9 µM [rising, single point] |  |
| Cc1nnc(SCC(=O)Nc2nsc(-c3ccc(Cl)cc3)n2)s1 | 13 µM [rising, partial curve, poor fit] |  |
| Cc1ccc(-n2nc3c(=O)n(CCCC(=O)NCc4ccc(C)o4)nc(C)c3c2C)cc1 | 22.4 µM [falling, partial curve, poor fit] |  |
| O=C(CNC(=O)c1cccc(F)c1)N/N=C/c1ccc(O)c([N+](=O)[O-])c1 | 2.06 µM [falling, partial curve] |  |
| CCC(C)c1ccccc1N1CC(C(=O)Nc2ccc(S(=O)(=O)N3CCOCC3)cc2)CC1=O (configuration not stated) | 3.66 µM [falling, single point] |  |
| Cc1ccc(N/N=C(\Cc2nc3ccccc3[nH]2)c2ccccc2)cc1 |  | 29.1 µM [falling, partial curve, poor fit] |
| CCOC(=O)c1c(NC(=O)COC(=O)c2ccc(O)cc2)sc(C(=O)N(C)C)c1C | 5.01 µM [falling, partial curve, poor fit] |  |
| COC(=O)C1=C(C)NC(=O)CC1c1ccc(F)c(Br)c1 (configuration not stated) | 29.1 µM [rising, single point] |  |
| CC(C)CC(C)c1cc(N)nc2nc3ccccc3n12 (configuration not stated) | 35.5 µM [falling, single point] |  |
| O=C1OCCN1C(=O)[C@H]1[C@H](c2ccc([N+](=O)[O-])cc2)C(c2cccc(Cl)c2)=NN1c1ccc(Br)cc1 | 23.1 µM [rising, partial curve, poor fit] |  |
| O=C(Nc1cc(C(F)(F)F)ccc1-n1cnc2ccccc21)c1ccccc1 | 16.4 µM [falling, partial curve, poor fit] |  |
| O=C(Oc1cccc(C(=S)N2CCOCC2)c1)c1cc([N+](=O)[O-])cc([N+](=O)[O-])c1 | 6.31 µM [falling, single point] |  |
| CCOC(=O)Cc1csc(NC(=O)CCCN2C(=O)c3ccccc3C2=O)n1 | 1.84 µM [falling, full curve, poor fit] |  |
| CCS(=O)(=O)c1ccc2oc(Nc3ccccc3C)nc2c1 | 11.2 µM [rising, partial curve] |  |

| Structure (SMILES) | AC50 [1] | AC50 [2] |
| --- | --- | --- |
| COc1ccc(/C=C/C(=O)Nc2cc(S(=O)(=O)N3CCOCC3)ccc2OC)cc1 | 29.1 µM [falling, single point] | 23.1 µM [falling, partial curve, poor fit] |
| CC(=O)c1ccc(OCC(=O)N(C)CC(=O)Nc2ccc(N3CCOCC3)cc2)cc1 | 29.1 µM [rising, single point] |  |
| CCOc1ccc(NC(=O)NC2CCCc3ccccc32)cc1 (configuration not stated) | 2 µM [falling, partial curve, poor fit] |  |
| COC(=O)c1cc(C(=O)OCC(=O)N(C)C2CCS(=O)(=O)C2)cc([N+](=O)[O-])c1 (configuration not stated) | 15.8 µM [falling, single point] |  |
| O=[N+]([O-])c1ccc(OCCCOc2cccc3cccnc23)cc1 | 35.5 µM [rising, single point] |  |
| CCc1ccc(C2=NN(CCC(=O)NCCc3ccc(OC)c(OC)c3)C(=O)CC2)cc1 | 5.62 µM [rising, single point] |  |
| CCOC(=O)CN(C)Cc1cn(C)nc1-c1ccc(Oc2ccccc2)cc1 | 6.31 µM [rising, single point] |  |
| COc1ccc(Cc2nc(-c3ccc(NC(=O)c4cccnc4)cc3)no2)cc1 | 0.92 µM [rising, full curve] |  |
| O=C(C1CCN(S(=O)(=O)c2cccc3cccnc23)CC1)N1CCc2ccccc21 | 7.08 µM [rising, full curve, poor fit] |  |
| CCc1ccccc1NC(=O)CCOc1ccccc1 | 4.47 µM [falling, partial curve] and 501 nM [falling, partial curve, poor fit] |  |
| O=C(Nc1ccc(Cc2ccncc2)cc1)c1cccs1 | 3.98 µM [rising, partial curve, poor fit] |  |
| COc1ccccc1CNS(=O)(=O)c1ccc(-c2cnc(C3CC3)o2)cc1 | 22.4 µM [rising, single point] | 12.6 µM [falling, partial curve] |
| Cc1ccc(C)c(/C=N/NC(=S)NCCc2ccccc2)c1 | 23.1 µM [rising, single point] |  |
| Cc1ccc2c(c1)C(C)(C)[C@]1(C)NC(=O)CCN21 | 17.8 µM [rising, single point] |  |
| COc1ccnc(Oc2ccccc2)c1C(=O)N/C=N/OCc1ccc(F)cc1Cl | 35.5 µM [falling, single point] |  |
| CCOC(=O)c1sc(NC(=O)c2ccc(OC(C)=O)cc2)nc1C | 0.316 µM [falling, full curve] |  |
| Cc1nc2ncnn2c(C)c1CCC(=O)NC(C)CCc1ccco1 (configuration not stated) | 35.5 µM [rising, single point] |  |
| CCn1c(C)cc(C(=O)COC(=O)c2ccccc2[N+](=O)[O-])c1C | 1.03 µM [rising, full curve, poor fit] |  |
| CCCn1c(SCC(=O)Nc2ccccc2N2CCCCC2)nc2c1c(=O)n(C)c(=O)n2C | 3.66 µM [falling, partial curve, poor fit] |  |
| Cn1ccc2c(OCC(=O)NCc3ccccc3)cccc2c1=O | 3.55 µM [falling, partial curve] |  |

| Structure (SMILES) | AC50 [1] | AC50 [2] |
| --- | --- | --- |
| Clc1ccc(N=C2SCCS2)cc1 | 14.1 µM [rising, partial curve, poor fit] |  |
| CCOC(=O)CN1N=C(/C=C/c2ccc(C(C)C)cc2)CCC1=O | 12.6 µM [rising, partial curve] |  |
| CN=C1C([N+](=O)[O-])=CC=C2C1=NC1(CCCCC1)N2O | 1.3 µM [rising, full curve, poor fit] | 4.61 µM [falling, single point] |
| Cc1nc2ccccc2nc1OCc1ccccc1 | 14.6 µM [rising, partial curve] |  |
| CCc1ccc2oc(C(=O)NCCc3ccc(S(N)(=O)=O)cc3)cc(=O)c2c1 | 20 µM [rising, single point] |  |
| CCc1ccccc1NC1=NCC(=O)N1Cc1ccc2c(c1)OCO2 | 16.4 µM [falling, partial curve, poor fit] |  |
| CCN1CCN(c2cc(C(C)C)nc3c(-c4ccccc4)c(C)nn23)CC1 | 35.5 µM [falling, single point] |  |
| COc1ccc(-c2ccnc(-c3ccc(O)cc3)n2)cc1 | 17.8 µM [rising, single point] | 28.2 µM [falling, partial curve, poor fit] |
| CC(O)c1cc2c(cc1NC(=O)c1cnn3c1NC(c1ccco1)CC3C(F)(F)F)OCO2 (configuration not stated) | 29.1 µM [rising, single point] |  |
| CN(CCNC(=O)c1ccc(CS(=O)(=O)c2ccc(Br)cc2)o1)CCc1ccccc1 | 35.5 µM [falling, partial curve, poor fit] |  |
| COc1cccc(-c2nnc(SCC(=O)Nc3cc(C)on3)o2)c1 |  | 35.5 µM [falling, partial curve, poor fit] |
| COc1ccc(/C=N/NC(=O)c2[nH]nc3c2CCc2ccccc2-3)cc1OC | 29.1 µM [rising, single point] | 6.51 µM [falling, full curve] |
| CCCn1nnnc1NCc1ccc(CC)cc1 | 35.5 µM [rising, single point] |  |
| Cc1cc(C)nc(-n2nc(C)c(Sc3ccc(F)cc3)c2N)n1 | 12.6 µM [falling, single point] |  |
| CCOC(=O)C1CCCN(C(=O)Cn2sc3nc(C)cc(C)c3c2=O)C1 (configuration not stated) | 8.2 µM [falling, partial curve, poor fit] | 29.1 µM [rising, partial curve, poor fit] |
| O=C(O)c1ccccc1Nc1ccnc(C(F)(F)F)c1 | 5.62 µM [rising, single point] |  |
| COc1cc2c(cc1OC)C(C)N(C(=O)CCN1C(=O)C3C4C=CC(C4)C3C1=O)CC2 (configuration not stated) | 29.1 µM [rising, single point] |  |
| O=C(N/N=C/c1ccccn1)c1[nH]c2ccc([N+](=O)[O-])cc2c1-c1ccccc1 | 35.5 µM [rising, single point] | 35.5 µM [falling, single point] |
| COc1cc(OC)cc(C(=O)OCC(=O)Nc2sccc2C(N)=O)c1 | 35.5 µM [falling, single point] |  |
| O=C(Nc1ccc(S(=O)(=O)N2CCOCC2)cc1)c1ccco1 | 23.1 µM [rising, partial curve, poor fit] |  |

Single entries from above:
`O=C(O)c1ccccc1Nc1ccnc(C(F)(F)F)c1` | AC50 [1]: 5.62 µM [rising, single point]
`COc1cccc(-c2nnc(SCC(=O)Nc3cc(C)on3)o2)c1` | AC50 [2]: 35.5 µM [falling, partial curve, poor fit]
`CCc1ccc2oc(C(=O)NCCc3ccc(S(N)(=O)=O)cc3)cc(=O)c2c1` | AC50 [1]: 20 µM [rising, single point]
`CN(CCNC(=O)c1ccc(CS(=O)(=O)c2ccc(Br)cc2)o1)CCc1ccccc1` | AC50 [1]: 35.5 µM [falling, partial curve, poor fit]
